Measured values published in PubChem BioAssay AID330 (DTP/NCI, 2004).
The list shows only some results of the screen, not a fair sample: it is rich in T/C values a quarter to a half above the control, in often repeated tests (any T/C) and in doses without a T/C. Other doses and runs of a compound stand elsewhere. T/C gives the treated animals as a percentage of the vehicle group. Some doses have a count of surviving animals in place of a T/C: the source files T/C as zero there, which appears to mark a toxic dose or a test without result, not a measured value. Some doses without a T/C left all or most animals alive at the check, yet need not have been tolerated: the source hardly ever lists a survival T/C far under the control, and the zero likely stands for such cases as well. Counts of survivors are from the toxicity check (mostly the fifth day) where no day follows; animals may have died later. Schedule codes are those of the source, taken here to give the interval after Q, in days (D) or hours (H), and the number of doses after X. Some entries were tested several times; their values stand side by side, smallest first. Where survival is the endpoint, this PubChem deposit counts one and a half times the control or more as active, and values a quarter to a half above the control carry no call in these data; other NCI protocols may use other cut-offs. Some T/C values carry the count of animals alive at the toxicity check (mostly the fifth day); without a count, all were alive then.

Tested on: P388 leukemia ip, CD2F1 mice, survival T/C
Experiment: NCI In Vivo Anticancer Drug Screen. Data for tumor model P388 Leukemia (intraperitoneal) in CD2F1 (CDF1) mice
Details: T/C endpoint: median survival time, higher T/C = longer survival
[1] = dose: 1.56 mg/kg/injection, schedule: Q01DX009 (ip), vehicle: saline with Tween-80
[2] = dose: 50.0 mg/kg/injection, schedule: Q01DX009 (ip), vehicle: saline with Tween-80
[3] = dose: 100.0 mg/kg/injection, schedule: Q01DX009 (ip), vehicle: saline with Tween-80
[4] = dose: 12.5 mg/kg/injection, schedule: Q01DX009 (ip), vehicle: saline
[5] = dose: 200.0 mg/kg/injection, schedule: Q01DX009 (ip), vehicle: saline
[6] = dose: 50.0 mg/kg/injection, schedule: Q04DX003 (ip), vehicle: water
[7] = dose: 50.0 mg/kg/injection, schedule: Q01DX009 (ip), vehicle: Klucel (hydroxypropylcellulose) (HPC)
[8] = dose: 100.0 mg/kg/injection, schedule: Q01DX009 (ip), vehicle: Klucel (hydroxypropylcellulose) (HPC)
[9] = dose: 200.0 mg/kg/injection, schedule: Q01DX009 (ip), vehicle: Klucel (hydroxypropylcellulose) (HPC)
[10] = dose: 200.0 mg/kg/injection, schedule: Q01DX009 (ip), vehicle: saline with Tween-80
[11] = dose: 240.0 mg/kg/injection, schedule: Q01DX005 (ip), vehicle: Klucel (hydroxypropylcellulose) (HPC)
[12] = dose: 200.0 mg/kg/injection, schedule: Q01DX005 (ip), vehicle: saline with Tween-80
[13] = dose: 25.0 mg/kg/injection, schedule: Q01DX009 (ip), vehicle: Klucel (hydroxypropylcellulose) (HPC)
[14] = dose: 12.5 mg/kg/injection, schedule: Q01DX005 (ip), vehicle: Klucel (hydroxypropylcellulose) (HPC)
[15] = dose: 200.0 mg/kg/injection, schedule: Q01DX005 (ip), vehicle: Klucel (hydroxypropylcellulose) (HPC)
[16] = dose: 50.0 mg/kg/injection, schedule: Q01DX009 (ip), vehicle: other
[17] = dose: 400.0 mg/kg/injection, schedule: Q01DX009 (ip), vehicle: Klucel (hydroxypropylcellulose) (HPC)

## CC(C)(C)N1CC1CNC(=O)C(=O)NCC1CN1C(C)(C)C (centres undefined)
[1]
  T/C: 137 % of control
dose: 25.0 mg/kg/injection, schedule: Q01DX009 (ip), vehicle: saline with Tween-80
  survivor count: 5 of 6 and 6 of 6
[2]
  survivor count: 4 of 6, 5 of 6, 6 of 6
[3]
  survivor count: 2 of 6

## CCOc1ccc(-n2cnc3c(=O)[nH]c(N)nc32)cc1
dose: 120.0 mg/kg/injection, schedule: Q01DX005 (ip), vehicle: saline with Tween-80
  survivor count: 6 of 6

## CCCCCCCCCCCCCCCC[N+]1(CC)CCCC1
dose: 0.78 mg/kg/injection, schedule: Q01DX009 (ip), vehicle: saline
  survivor count: 1 of 6
dose: 1.56 mg/kg/injection, schedule: Q01DX009 (ip), vehicle: saline
  survivor count: 0 of 6
dose: 3.12 mg/kg/injection, schedule: Q01DX009 (ip), vehicle: saline
  survivor count: 4 of 6
dose: 6.25 mg/kg/injection, schedule: Q01DX009 (ip), vehicle: saline
  survivor count: 2 of 6
[4]
  survivor count: 0 of 6
dose: 50.0 mg/kg/injection, schedule: Q01DX009 (ip), vehicle: saline
  survivor count: 0 of 6
dose: 100.0 mg/kg/injection, schedule: Q01DX009 (ip), vehicle: saline
  survivor count: 0 of 6
[5]
  survivor count: 0 of 6

## C[N+](C)(C)CCCCCCN
[5]
  survivor count: 2 of 6

## COc1cccc2c1C(=O)c1c(O)c3c(c(O)c1C2=O)C[C@](O)(C(=O)CO)CC3OC1CC(N)C(OC2CCCCO2)C(C)O1 (some centres undefined)
dose: 0.94 mg/kg/injection, schedule: Q01DX005 (ip), vehicle: water
  T/C: 127 % of control [5 of 6 alive]
dose: 1.56 mg/kg/injection, schedule: Q04DX003 (ip), vehicle: water
  T/C: 127 % of control
dose: 1.88 mg/kg/injection, schedule: Q01DX005 (ip), vehicle: water
  T/C: 136 % of control
dose: 12.5 mg/kg/injection, schedule: Q04DX003 (ip), vehicle: water
  T/C: 132 % of control
dose: 25.0 mg/kg/injection, schedule: Q04DX003 (ip), vehicle: water
  survivor count: 10 of 10
[6]
  survivor count: 4 of 10

## Nc1ncnc2c1C=C(B(O)O)B(O)N2
[7]
  survivor count: 2 of 6
[8]
  survivor count: 0 of 6
[9]
  survivor count: 0 of 6

## COc1ccc2c(N)c3cccc[n+]3cc2c1OC
[6]
  T/C: 130 % of control
  survivor count: 6 of 6
dose: 100.0 mg/kg/injection, schedule: Q04DX003 (ip), vehicle: water
  survivor count: 0 of 6 and 2 of 6
dose: 200.0 mg/kg/injection, schedule: Q04DX003 (ip), vehicle: water
  survivor count: 0 of 6
dose: 400.0 mg/kg/injection, schedule: Q04DX003 (ip), vehicle: water
  survivor count: 0 of 6

## CCOP(=S)(OCC)Oc1cc(C)nc(C(C)C)n1
[10]
  survivor count: 6 of 6

## Cc1ccc2nc(NC(=S)NCCCCCCNC(=S)Nc3ccc4cc(C)ccc4n3)ccc2c1
[9]
  survivor count: 6 of 6

## O=c1[nH]c2c([N+](=O)[O-])cc(Cl)cc2nc1/C=C(\O)c1ccncc1
[11]
  survivor count: 3 of 6

## C=C(CCCC)N1CCN=N1
dose: 50.0 mg/kg/injection, schedule: Q01DX005 (ip), vehicle: saline with Tween-80
  survivor count: 0 of 5
dose: 100.0 mg/kg/injection, schedule: Q01DX005 (ip), vehicle: saline with Tween-80
  survivor count: 0 of 5
[12]
  survivor count: 0 of 5

## [Cl][Sn]([Cl])([c]1ccccc1)[c]1ccccc1.c1ccncc1.c1ccncc1
[1]
  T/C: 126 % of control
dose: 3.12 mg/kg/injection, schedule: Q01DX009 (ip), vehicle: saline with Tween-80
  T/C: 132 % of control
dose: 6.25 mg/kg/injection, schedule: Q01DX009 (ip), vehicle: saline with Tween-80
  T/C: 141 % of control
[4]
  survivor count: 1 of 6
[13]
  survivor count: 1 of 6
dose: 25.0 mg/kg/injection, schedule: Q01DX009 (ip), vehicle: saline
  survivor count: 0 of 6
[7]
  survivor count: 0 of 6

## CN1CCN=C1c1ccc(NC(=O)c2ccc(C(=O)Nc3ccc(C4=NCCN4C)cc3)c(Cl)c2)cc1
[14]
  T/C: 128 % of control [4 of 6 alive]
  survivor count: 3 of 6
dose: 25.0 mg/kg/injection, schedule: Q01DX005 (ip), vehicle: Klucel (hydroxypropylcellulose) (HPC)
  survivor count: 0 of 6
dose: 50.0 mg/kg/injection, schedule: Q01DX005 (ip), vehicle: Klucel (hydroxypropylcellulose) (HPC)
  survivor count: 0 of 6
dose: 100.0 mg/kg/injection, schedule: Q01DX005 (ip), vehicle: Klucel (hydroxypropylcellulose) (HPC)
  survivor count: 0 of 6
[15]
  survivor count: 0 of 6

## O=[N+]([O-])c1ccc(S/N=C\c2ccccc2)c([N+](=O)[O-])c1
[3]
  survivor count: 6 of 6
[10]
  survivor count: 6 of 6

## NC(=O)c1cc([N+](=O)[O-])cnc1Sc1ncccn1
[8]
  survivor count: 0 of 6
[9]
  survivor count: 0 of 6

## O=P(c1ccccc1)(c1ccccc1)c1ccccc1 (tested in a mixture with another compound)
[16]
  survivor count: 6 of 6
dose: 100.0 mg/kg/injection, schedule: Q01DX009 (ip), vehicle: other
  survivor count: 6 of 6
dose: 200.0 mg/kg/injection, schedule: Q01DX009 (ip), vehicle: other
  survivor count: 5 of 6
dose: 400.0 mg/kg/injection, schedule: Q01DX009 (ip), vehicle: other
  survivor count: 3 of 6

## CCC1S(=O)(=O)OCCOS1(=O)=O
dose: 60.0 mg/kg/injection, schedule: Q01DX005 (ip), vehicle: Klucel (hydroxypropylcellulose) (HPC)
  T/C: 114, 115, 121, 142 % of control
dose: 120.0 mg/kg/injection, schedule: Q01DX005 (ip), vehicle: Klucel (hydroxypropylcellulose) (HPC)
  survivor count: 3 of 6
[11]
  survivor count: 0 of 6

## COc1cc(C(=O)N=Nc2c(O)[nH]c3ccc(Br)cc23)cc(OC)c1OC
[13]
  survivor count: 6 of 6
[7]
  survivor count: 6 of 6
[8]
  survivor count: 6 of 6
[9]
  survivor count: 6 of 6
[17]
  survivor count: 6 of 6

## [CH3][Sn]1([Cl])[O]CCNCC[O]1
[15]
  T/C: 125 % of control

## Oc1nc(-c2ccccc2)sc1-c1ccc(Cl)cc1
[2]
  survivor count: 6 of 6
[3]
  survivor count: 6 of 6

## O=C(Nc1ccccc1O)C1C(=O)C(=O)N(c2ccccc2O)C1=O (centres undefined)
[9]
  T/C: 125 and 128 % of control
[17]
  survivor count: 2 of 6 and 3 of 6

## COc1ccc(CCN(C=O)CCc2ccc(OC)c(OC)c2)cc1OC
[16]
  survivor count: 6 of 6

## Cc1nc2sccn2c1/C=N/O
dose: 100.0 mg/kg/injection, schedule: Q04DX002 (ip), vehicle: Klucel (hydroxypropylcellulose) (HPC)
  survivor count: 0 of 6
dose: 200.0 mg/kg/injection, schedule: Q04DX002 (ip), vehicle: Klucel (hydroxypropylcellulose) (HPC)
  survivor count: 0 of 6
dose: 400.0 mg/kg/injection, schedule: Q04DX002 (ip), vehicle: Klucel (hydroxypropylcellulose) (HPC)
  survivor count: 0 of 6

## COCCOc1cccc2c1C(=O)c1ccccc1C2=O
[12]
  survivor count: 5 of 5

## Cc1cnc(N)c(C(=O)O)n1
[15]
  survivor count: 3 of 5

## [NH-]C(CCC(N)=O)C(=O)O.[NH-]C(CCC(N)=O)C(=O)O.[Zn+2] (centres undefined)
[2]
  T/C: 130 % of control [5 of 6 alive]
[3]
  survivor count: 3 of 6
[10]
  survivor count: 0 of 6

## CC(C)c1oc(=O)cc2c1C(O)C1OC(=O)C3(C)C(O)C4OC4C2(C)C13 (centres undefined) (tested in a mixture with another compound)
dose: 30.0 mg/kg/injection, schedule: Q01DX009 (ip), vehicle: saline with Tween-80
  T/C: 128 % of control

## CN1C(C)(C)CC(C(=O)c2ccccc2)(c2ccccc2)CC1(C)C
dose: 200.0 mg/kg/injection, schedule: Q01DX005 (ip), vehicle: saline + Tween-80 + alcohol
  survivor count: 0 of 6
